In paper PMC7339578, “Multiple circulating alkaloids and saponins from intravenous Kang-Ai injection inhibit human cytochrome P450 and UDP-glucuronosyltransferase isozymes: potential drug–drug interactions” (Chinese Medicine, 2020) one finds Extraction recovery and Matrix effect data, which are given here for 8 molecules.

The nature of the data set: Extraction recoveries and matrix effects in rat plasma.

Consider `CC(C)=CCC[C@](C)(O)[C@H]1CC[C@]2(C)[C@@H]1[C@H](O)C[C@@H]1[C@@]3(C)CC[C@H](O)C(C)(C)[C@@H]3[C@@H](O[C@@H]3O[C@H](CO)[C@@H](O)[C@H](O)[C@H]3O)C[C@]12C` [Compound C1, Ginsenoside Rh1], for which the Extraction recovery came to 98.82±10.66% (concentration 20 nM), 87.97±1.31% (concentration 100 nM) and 90.40±3.23% (concentration 400 nM). Further, the Matrix effect is given as 100.13±5.48% (concentration 20 nM), 108.26±3.21% (concentration 100 nM) and 104.51±2.44% (concentration 400 nM).

The molecule `CC(C)=CCC[C@](C)(O[C@@H]1O[C@H](CO)[C@@H](O)[C@H](O)[C@H]1O)[C@H]1CC[C@]2(C)[C@@H]1[C@H](O)C[C@@H]1[C@@]3(C)CC[C@H](O)C(C)(C)[C@@H]3[C@@H](O[C@@H]3O[C@H](CO)[C@@H](O)[C@H](O)[C@H]3O)C[C@]12C` [Compound C6, Ginsenoside Rg1] returned an Extraction recovery (concentration 40 nM) of 98.42±7.75%, an Extraction recovery (concentration 200 nM) of 86.28±6.89% and an Extraction recovery (concentration 800 nM) of 92.14±11.01%. In addition, the Matrix effect was determined as 92.06±6.88% (concentration 40 nM), 94.22±8.55% (concentration 200 nM) and 98.43±9.35% (concentration 800 nM).

Consider `O=C1C=CC[C@@H]2[C@H]3CCC[N+]4([O-])CCC[C@@H](CN12)[C@@H]34` (stereo partly drawn) [Compound A2, Oxysophocarpine], for which the Extraction recovery is listed as 100.26±10.57% (concentration 20 nM), 108.98±6.07% (concentration 100 nM) and 88.46±2.91% (concentration 400 nM). The Matrix effect turned out to be 103.61±8.62% (concentration 20 nM), 100.35±10.48% (concentration 100 nM) and 105.13±4.79% (concentration 400 nM).

For the molecule `CC(C)=CCC[C@](C)(O[C@@H]1O[C@H](CO[C@@H]2O[C@H](CO)[C@@H](O)[C@H](O)[C@H]2O)[C@@H](O)[C@H](O)[C@H]1O)[C@H]1CC[C@]2(C)[C@@H]1[C@H](O)C[C@@H]1[C@@]3(C)CC[C@H](O[C@@H]4O[C@H](CO)[C@@H](O)[C@H](O)[C@H]4O[C@@H]4O[C@H](CO)[C@@H](O)[C@H](O)[C@H]4O)C(C)(C)[C@@H]3CC[C@]12C` [Compound D5, Ginsenoside Rb1], the Extraction recovery reads like this: (concentration 20 nM) 96.18±14.17%; (concentration 100 nM) 89.29±3.21%; (concentration 400 nM) 90.85±7.16%. The Matrix effect runs as follows: (concentration 20 nM) 97.22±8.04%; (concentration 100 nM) 99.16±11.65%; (concentration 400 nM) 105.21±11.86%.

For the molecule `CC(C)=CCC[C@](C)(O[C@@H]1O[C@H](CO)[C@@H](O)[C@H](O)[C@H]1O)[C@H]1CC[C@]2(C)[C@@H]1[C@H](O)C[C@@H]1[C@@]3(C)CC[C@H](O)C(C)(C)[C@@H]3[C@@H](O[C@@H]3O[C@H](CO)[C@@H](O)[C@H](O)[C@H]3O[C@@H]3O[C@@H](C)[C@H](O)[C@@H](O)[C@H]3O)C[C@]12C` [Compound C9, Ginsenoside Re], the Extraction recovery is, setting by setting: (concentration 40 nM) 84.68±2.98%; (concentration 200 nM) 82.85±2.10%; (concentration 800 nM) 90.05±3.61%. In addition, the Matrix effect by setting is: (concentration 40 nM) 97.71±3.91%; (concentration 200 nM) 110.45±2.83%; (concentration 800 nM) 103.82±5.13%.

As to `CC(C)=CCC[C@](C)(O[C@@H]1O[C@H](CO[C@@H]2O[C@@H](CO)[C@H](O)[C@H]2O)[C@@H](O)[C@H](O)[C@H]1O)[C@H]1CC[C@]2(C)[C@@H]1[C@H](O)C[C@@H]1[C@@]3(C)CC[C@H](O[C@@H]4O[C@H](CO)[C@@H](O)[C@H](O)[C@H]4O[C@@H]4O[C@H](CO)[C@@H](O)[C@H](O)[C@H]4O)C(C)(C)[C@@H]3CC[C@]12C` [Compound D3, Ginsenoside Rc], the Extraction recovery reads like this: (concentration 20 nM) 88.57±7.91%; (concentration 100 nM) 102.68±2.46%; (concentration 400 nM) 87.64±6.22%. The Matrix effect by setting is: (concentration 20 nM) 103.80±13.18%; (concentration 100 nM) 98.95±12.51%; (concentration 400 nM) 100.09±4.57%.

Turning to `O=C1CCC[C@@H]2[C@H]3CCC[N+]4([O-])CCC[C@@H](CN12)[C@@H]34` (stereo partly drawn) [Compound A3, Oxymatrine], the Extraction recovery is recorded as 105.17±8.62% (concentration 80 nM), 105.83±6.93% (concentration 400 nM) and 89.64±3.30% (concentration 1600 nM). For the same molecule, the Matrix effect runs as follows: (concentration 80 nM) 100.75±5.86%; (concentration 400 nM) 100.93±1.97%; (concentration 1600 nM) 108.18±3.90%.

In the case of `O=C1CCC[C@@H]2[C@H]3CCCN4CCC[C@@H](CN12)[C@@H]34` [Compound A1, Matrine], the Extraction recovery is given as 99.96±8.70% (concentration 20 nM), 102.28±11.06% (concentration 100 nM) and 86.91±1.81% (concentration 400 nM). Also, the Matrix effect came to 97.15±8.32% (concentration 20 nM), 100.69±10.94% (concentration 100 nM) and 104.25±6.38% (concentration 400 nM).
